Experimental data published in patent US20240216517A1.
Results are given in words; binding and its absence hold for the method and conditions named. Some results given as binding are weak or reduced against the parent protein; the word gives no strength.

Molecular target: human transferrin receptor-Fc tag standard (human) (UniProt P02786)
Assay: ELISA, human transferrin receptor-Fc coated on the plate

binding: binds
B1: huHF_Mutant2-dual (designed binder)
chain: MTTASTSQVRQNYHAASEAAINAQINLELYASYVYLSMSYYFDRDDVALKNFAKYFLHQSHEEREHAEKLMKLQNQRGGRIALADIQKPDCDGGSYGSLYAFDIDWESGLNAMECALHLEKNVNQSLLALHALATAKNDPHLCDFIETHYLNEQVKAIKELGDHVTNLRKMGAPESGLAEYLFDKHTLGDSDNESMPSFITLASLSTWEGYFDF
